Reference: patent US20250084161A1
These are yes or no findings as the source states them, for the method shown. Some entries that bind do so weakly or less than the wild type.

T1: ECD2, P2X7 receptor (47-306), soluble (Homo sapiens (Human)) (UniProt Q99572)
T1 sequence: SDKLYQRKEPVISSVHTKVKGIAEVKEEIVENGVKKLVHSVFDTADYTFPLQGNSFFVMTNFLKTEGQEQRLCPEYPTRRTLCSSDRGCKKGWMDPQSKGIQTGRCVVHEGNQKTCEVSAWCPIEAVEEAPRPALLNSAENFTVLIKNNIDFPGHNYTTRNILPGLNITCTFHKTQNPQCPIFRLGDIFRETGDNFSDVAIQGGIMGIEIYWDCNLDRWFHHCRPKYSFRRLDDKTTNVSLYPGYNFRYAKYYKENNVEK

T2: pDisplay-ECD2 on HEK293 cells (Homo sapiens (Human)) (UniProt Q99572)
T2 sequence: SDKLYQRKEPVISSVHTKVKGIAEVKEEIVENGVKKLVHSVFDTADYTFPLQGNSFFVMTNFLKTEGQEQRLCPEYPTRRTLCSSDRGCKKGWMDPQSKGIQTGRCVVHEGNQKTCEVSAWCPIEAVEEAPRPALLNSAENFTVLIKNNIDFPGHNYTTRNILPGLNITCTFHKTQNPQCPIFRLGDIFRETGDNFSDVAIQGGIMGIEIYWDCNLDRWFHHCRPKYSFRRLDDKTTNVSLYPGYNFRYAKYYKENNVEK


Tests used:
[1] = biological target: T1, ECD2, P2X7 receptor (47-306), soluble (Homo sapiens (Human)); assay: Biacore, 10 and 5 nM. The surface is not named for this figure; ECD2 domain is taken from the context of paragraph 361 and paragraph 362
[2] = biological target: T2, pDisplay-ECD2 on HEK293 cells (Homo sapiens (Human)); assay: flow cytometry, live HEK293E cells expressing pDisplay-ECD2 ('HEK293E-pDisplay ED'), dAb at 5 uM, detection with anti-human IgG Fab

binding [1]	binding [2]	Binder
binds		PEP2-472-12Alexa488 domain (protein, Alexa488 label attached (site not stated)) VH: EVQLLESGGGLVQPGGSLRLSCAASGYTFPMKDMGWVRQAPGKGLEWVSAISGSGGGTYYADSVKGRFTISRDNSKNTLYLQMNSLRAEDTAVYYCAEPKPMDTEFDYRSPGTLVTVSS
	binds	42.1 (protein) VH single domain (dAb): EVQMLESGGGLVQPGGSLRLSCAASGFTFDNVEMSWVRQAPGKGLEWVSSIGTKGEYTYYADSVKGRFTISRDNSKNTLYLQMNSMRAEDTAVYYCAQTVNVPEPAFAYWGQGTLVTVLS
